{"sequences": {"note": "Amino acid sequences for entries named in this document (tags omitted). A change or cut given only in a name is not applied to a line headed by its entry.", "UniProt Q14643, whole entry, looked up": "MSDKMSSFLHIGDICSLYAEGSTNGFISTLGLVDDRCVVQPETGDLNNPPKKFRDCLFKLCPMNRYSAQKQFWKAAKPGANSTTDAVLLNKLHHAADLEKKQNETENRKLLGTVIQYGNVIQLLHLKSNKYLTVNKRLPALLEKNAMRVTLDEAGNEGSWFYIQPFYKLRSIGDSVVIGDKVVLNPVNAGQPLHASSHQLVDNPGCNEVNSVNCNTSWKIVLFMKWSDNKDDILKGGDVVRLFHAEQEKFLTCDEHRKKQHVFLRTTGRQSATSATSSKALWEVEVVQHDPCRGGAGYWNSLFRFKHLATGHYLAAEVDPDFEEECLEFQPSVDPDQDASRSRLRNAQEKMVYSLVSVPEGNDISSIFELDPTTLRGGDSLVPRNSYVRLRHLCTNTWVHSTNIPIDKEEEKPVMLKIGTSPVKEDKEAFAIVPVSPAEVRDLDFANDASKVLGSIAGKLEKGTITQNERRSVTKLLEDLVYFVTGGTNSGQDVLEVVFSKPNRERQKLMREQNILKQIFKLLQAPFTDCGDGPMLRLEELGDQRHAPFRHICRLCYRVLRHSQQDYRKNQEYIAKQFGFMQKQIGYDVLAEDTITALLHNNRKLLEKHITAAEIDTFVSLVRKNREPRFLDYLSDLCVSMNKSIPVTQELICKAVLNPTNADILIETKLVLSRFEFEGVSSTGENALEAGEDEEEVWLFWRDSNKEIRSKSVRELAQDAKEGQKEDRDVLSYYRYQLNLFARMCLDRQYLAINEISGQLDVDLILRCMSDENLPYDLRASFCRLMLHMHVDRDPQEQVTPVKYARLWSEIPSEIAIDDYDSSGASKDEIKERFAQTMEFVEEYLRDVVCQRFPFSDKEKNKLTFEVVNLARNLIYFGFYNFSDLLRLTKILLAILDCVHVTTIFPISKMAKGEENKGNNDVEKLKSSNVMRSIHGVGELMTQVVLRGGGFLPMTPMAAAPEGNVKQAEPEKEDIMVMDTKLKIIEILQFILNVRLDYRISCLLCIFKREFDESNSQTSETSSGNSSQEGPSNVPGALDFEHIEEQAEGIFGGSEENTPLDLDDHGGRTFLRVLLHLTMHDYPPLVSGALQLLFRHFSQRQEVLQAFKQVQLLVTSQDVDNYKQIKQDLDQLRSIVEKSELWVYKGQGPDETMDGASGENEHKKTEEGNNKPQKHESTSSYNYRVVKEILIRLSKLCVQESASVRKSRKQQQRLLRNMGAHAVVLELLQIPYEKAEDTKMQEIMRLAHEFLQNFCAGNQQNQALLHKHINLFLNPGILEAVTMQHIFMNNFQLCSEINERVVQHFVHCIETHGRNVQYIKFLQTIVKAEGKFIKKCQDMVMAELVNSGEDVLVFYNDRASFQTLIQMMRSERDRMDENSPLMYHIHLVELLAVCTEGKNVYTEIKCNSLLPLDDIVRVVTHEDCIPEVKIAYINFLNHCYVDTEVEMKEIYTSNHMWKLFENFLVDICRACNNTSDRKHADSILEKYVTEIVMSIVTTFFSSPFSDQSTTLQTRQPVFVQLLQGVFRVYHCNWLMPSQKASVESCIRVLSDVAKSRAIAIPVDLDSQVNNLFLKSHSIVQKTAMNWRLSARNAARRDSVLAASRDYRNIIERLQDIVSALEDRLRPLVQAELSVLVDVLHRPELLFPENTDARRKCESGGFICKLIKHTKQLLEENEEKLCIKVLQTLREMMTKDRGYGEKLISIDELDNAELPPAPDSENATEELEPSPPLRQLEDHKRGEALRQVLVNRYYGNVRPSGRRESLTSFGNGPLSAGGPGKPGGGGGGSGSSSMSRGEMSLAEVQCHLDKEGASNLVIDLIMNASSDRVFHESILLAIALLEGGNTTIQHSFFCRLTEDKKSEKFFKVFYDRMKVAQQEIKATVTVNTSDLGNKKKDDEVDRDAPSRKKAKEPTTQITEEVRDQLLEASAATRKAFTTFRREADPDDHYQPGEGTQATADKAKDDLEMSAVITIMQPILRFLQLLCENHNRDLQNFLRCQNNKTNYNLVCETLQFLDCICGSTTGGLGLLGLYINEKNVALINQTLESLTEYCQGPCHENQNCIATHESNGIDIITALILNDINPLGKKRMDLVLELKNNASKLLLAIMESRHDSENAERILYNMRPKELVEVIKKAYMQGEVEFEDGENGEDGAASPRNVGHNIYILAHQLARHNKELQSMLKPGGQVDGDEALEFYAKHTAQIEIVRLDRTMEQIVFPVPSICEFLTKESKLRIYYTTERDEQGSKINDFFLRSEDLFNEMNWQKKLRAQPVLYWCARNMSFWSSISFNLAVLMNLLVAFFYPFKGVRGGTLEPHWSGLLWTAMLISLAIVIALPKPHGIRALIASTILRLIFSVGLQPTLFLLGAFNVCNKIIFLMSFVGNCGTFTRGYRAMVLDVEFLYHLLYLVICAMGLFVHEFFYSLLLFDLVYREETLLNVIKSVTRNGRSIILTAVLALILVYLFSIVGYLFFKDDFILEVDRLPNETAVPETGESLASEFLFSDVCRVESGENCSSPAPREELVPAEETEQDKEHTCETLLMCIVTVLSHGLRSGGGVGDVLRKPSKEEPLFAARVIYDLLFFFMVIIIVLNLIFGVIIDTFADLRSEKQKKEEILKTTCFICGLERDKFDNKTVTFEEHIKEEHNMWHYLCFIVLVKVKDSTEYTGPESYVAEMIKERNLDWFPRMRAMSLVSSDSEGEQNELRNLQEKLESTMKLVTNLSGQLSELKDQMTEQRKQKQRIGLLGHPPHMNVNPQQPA", "UniProt Q14145, whole entry, looked up": "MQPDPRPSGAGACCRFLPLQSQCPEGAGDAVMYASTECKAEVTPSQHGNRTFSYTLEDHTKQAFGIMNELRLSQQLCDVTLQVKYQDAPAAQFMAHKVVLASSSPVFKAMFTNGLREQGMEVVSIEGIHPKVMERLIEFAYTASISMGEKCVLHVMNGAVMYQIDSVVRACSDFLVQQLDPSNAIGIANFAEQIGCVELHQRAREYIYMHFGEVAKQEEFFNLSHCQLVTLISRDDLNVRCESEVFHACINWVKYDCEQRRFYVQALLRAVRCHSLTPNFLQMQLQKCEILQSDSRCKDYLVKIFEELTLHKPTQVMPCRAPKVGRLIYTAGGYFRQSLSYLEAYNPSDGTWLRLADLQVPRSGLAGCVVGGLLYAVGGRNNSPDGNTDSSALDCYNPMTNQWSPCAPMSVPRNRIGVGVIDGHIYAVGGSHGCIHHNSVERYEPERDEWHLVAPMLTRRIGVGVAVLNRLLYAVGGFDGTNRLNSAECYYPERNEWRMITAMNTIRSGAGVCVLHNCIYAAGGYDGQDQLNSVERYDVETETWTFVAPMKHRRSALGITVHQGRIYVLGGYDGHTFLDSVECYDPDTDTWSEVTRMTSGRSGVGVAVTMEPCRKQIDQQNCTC", "UniProt Q92830, whole entry, looked up": "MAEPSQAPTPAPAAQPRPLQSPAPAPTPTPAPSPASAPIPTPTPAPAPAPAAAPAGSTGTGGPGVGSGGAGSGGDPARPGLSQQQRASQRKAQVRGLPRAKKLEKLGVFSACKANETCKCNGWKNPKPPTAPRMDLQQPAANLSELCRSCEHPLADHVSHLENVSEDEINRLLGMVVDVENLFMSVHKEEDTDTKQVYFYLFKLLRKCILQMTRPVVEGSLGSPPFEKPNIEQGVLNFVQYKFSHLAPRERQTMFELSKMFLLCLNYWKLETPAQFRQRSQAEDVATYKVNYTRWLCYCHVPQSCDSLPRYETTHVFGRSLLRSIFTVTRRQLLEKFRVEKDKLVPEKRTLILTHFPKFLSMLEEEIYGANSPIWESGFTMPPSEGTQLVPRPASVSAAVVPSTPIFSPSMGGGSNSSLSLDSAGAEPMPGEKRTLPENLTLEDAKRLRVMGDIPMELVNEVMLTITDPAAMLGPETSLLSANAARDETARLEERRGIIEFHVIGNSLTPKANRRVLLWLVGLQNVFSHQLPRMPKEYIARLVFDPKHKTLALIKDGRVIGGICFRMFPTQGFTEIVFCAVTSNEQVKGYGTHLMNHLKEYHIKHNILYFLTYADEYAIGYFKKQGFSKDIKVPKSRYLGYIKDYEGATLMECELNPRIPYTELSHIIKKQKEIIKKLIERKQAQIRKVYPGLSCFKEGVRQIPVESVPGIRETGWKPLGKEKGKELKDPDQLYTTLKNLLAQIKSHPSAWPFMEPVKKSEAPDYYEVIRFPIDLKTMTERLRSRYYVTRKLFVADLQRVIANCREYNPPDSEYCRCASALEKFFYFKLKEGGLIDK", "UniProt Q14667": "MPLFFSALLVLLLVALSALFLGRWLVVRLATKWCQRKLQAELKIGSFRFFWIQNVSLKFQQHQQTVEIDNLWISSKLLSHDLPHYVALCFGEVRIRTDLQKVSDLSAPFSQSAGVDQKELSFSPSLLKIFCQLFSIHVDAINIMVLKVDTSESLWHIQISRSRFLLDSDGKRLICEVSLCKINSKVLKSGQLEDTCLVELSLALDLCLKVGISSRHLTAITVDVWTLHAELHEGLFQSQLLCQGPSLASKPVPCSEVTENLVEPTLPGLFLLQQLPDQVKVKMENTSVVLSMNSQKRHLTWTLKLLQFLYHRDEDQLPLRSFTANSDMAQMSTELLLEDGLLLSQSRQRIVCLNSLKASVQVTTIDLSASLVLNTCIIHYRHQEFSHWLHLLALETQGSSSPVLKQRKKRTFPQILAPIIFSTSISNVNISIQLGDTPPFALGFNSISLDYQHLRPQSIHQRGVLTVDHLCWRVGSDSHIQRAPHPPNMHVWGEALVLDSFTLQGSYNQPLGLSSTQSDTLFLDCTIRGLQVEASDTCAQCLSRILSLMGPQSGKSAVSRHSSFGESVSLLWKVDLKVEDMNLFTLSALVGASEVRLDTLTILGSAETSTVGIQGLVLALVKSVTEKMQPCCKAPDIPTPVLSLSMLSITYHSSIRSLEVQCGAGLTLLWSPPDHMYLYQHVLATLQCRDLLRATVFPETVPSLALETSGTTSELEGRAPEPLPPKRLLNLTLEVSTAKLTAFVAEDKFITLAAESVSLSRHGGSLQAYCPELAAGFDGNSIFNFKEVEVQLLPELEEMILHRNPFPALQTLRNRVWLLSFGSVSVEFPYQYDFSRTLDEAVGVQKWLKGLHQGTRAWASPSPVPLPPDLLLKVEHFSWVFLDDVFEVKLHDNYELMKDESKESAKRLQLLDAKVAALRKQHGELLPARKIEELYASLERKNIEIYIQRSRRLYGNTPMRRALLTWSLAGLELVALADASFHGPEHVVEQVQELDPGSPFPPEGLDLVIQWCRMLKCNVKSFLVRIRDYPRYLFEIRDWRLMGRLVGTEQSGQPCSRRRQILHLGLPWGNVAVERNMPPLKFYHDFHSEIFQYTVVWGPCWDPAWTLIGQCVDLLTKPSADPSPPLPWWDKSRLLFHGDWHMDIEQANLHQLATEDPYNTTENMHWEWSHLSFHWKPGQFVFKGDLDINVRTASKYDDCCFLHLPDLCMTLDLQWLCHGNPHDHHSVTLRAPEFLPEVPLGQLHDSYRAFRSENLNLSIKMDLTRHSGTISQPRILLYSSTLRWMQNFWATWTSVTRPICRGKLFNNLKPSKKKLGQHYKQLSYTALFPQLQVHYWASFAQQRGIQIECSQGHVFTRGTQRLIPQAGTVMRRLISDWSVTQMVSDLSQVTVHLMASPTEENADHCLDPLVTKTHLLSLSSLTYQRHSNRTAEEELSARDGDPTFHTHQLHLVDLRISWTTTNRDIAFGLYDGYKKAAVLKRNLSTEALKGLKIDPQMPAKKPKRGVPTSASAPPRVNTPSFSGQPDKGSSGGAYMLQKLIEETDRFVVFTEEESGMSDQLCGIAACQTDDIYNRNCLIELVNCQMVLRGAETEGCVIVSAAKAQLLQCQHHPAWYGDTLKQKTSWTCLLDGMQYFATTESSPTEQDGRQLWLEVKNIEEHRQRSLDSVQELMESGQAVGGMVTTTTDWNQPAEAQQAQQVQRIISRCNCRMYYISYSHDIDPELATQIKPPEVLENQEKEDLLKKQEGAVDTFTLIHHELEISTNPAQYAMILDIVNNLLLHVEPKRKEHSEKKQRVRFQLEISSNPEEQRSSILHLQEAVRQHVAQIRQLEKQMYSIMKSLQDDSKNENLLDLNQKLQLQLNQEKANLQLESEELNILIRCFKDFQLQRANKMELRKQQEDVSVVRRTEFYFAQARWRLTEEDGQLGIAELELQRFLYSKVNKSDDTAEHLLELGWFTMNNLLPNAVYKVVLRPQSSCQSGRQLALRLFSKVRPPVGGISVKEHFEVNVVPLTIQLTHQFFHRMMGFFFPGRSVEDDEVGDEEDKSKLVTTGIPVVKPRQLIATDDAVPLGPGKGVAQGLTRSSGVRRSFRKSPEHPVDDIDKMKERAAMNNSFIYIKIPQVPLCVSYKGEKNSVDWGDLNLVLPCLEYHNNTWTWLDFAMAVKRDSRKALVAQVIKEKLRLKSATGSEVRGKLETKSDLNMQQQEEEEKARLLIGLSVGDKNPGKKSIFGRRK"}, "source": "the supplement of paper PMC12067093", "about": "“Discovery and optimisation of a covalent ligand for TRIM25 and its application to targeted protein ubiquitination” (Chemical Science, 2025)", "compound": "CC1Cc2ccccc2N1C(=O)C1CCCN(C1)C(=O)CCl (mixture of isomers) [TRIM25 ligand 11 (diastereomer mixture)]", "test": "probe-labelled cysteine peptide fold change vs DMSO (competition) (log2 fold change); higher = less target engagement (more negative = stronger competition)", "details": "THP-1, incubation time: 4 h", "note": "The list shows a part of the results.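 Also: competitive chemoproteomic profiling in live THP-1 cells with an iodoacetamide desthiobiotin (IA-DTB) probe, comparing probe-labelled peptide intensities in compound-treated cells against DMSO-treated controls.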", "data": [{"target": "KDM1A_O60341_618+623_CDAVLCTLPLGVLK (UniProt O60341)", "values": [{"measurement": "probe-labelled cysteine peptide fold change", "setting": "10 µM", "result": -0.0168}, {"measurement": "probe-labelled cysteine peptide fold change", "setting": "50 µM", "result": 0.0371}]}, {"target": "KDM5C_P41229_267_EGPECPPTVVVK (UniProt P41229)", "values": [{"measurement": "probe-labelled cysteine peptide fold change", "setting": "10 µM", "result": 0.0279}, {"measurement": "probe-labelled cysteine peptide fold change", "setting": "50 µM", "result": -0.0699}]}, {"target": "KANK1_Q14678_907_ITGNYLGYTCK (UniProt Q14678)", "values": [{"measurement": "probe-labelled cysteine peptide fold change", "setting": "10 µM", "result": 0.02}, {"measurement": "probe-labelled cysteine peptide fold change", "setting": "50 µM", "result": 0.141}]}, {"target": "KBTBD2_Q8IY47_145_LLSFADLFSCEELK (UniProt Q8IY47)", "values": [{"measurement": "probe-labelled cysteine peptide fold change", "setting": "10 µM", "result": -0.048}, {"measurement": "probe-labelled cysteine peptide fold change", "setting": "50 µM", "result": -0.103}]}, {"target": "KANSL2_Q9H9L4_88_DGVSFCAEHVR (UniProt Q9H9L4)", "values": [{"measurement": "probe-labelled cysteine peptide fold change", "setting": "10 µM", "result": 0.00575}, {"measurement": "probe-labelled cysteine peptide fold change", "setting": "50 µM", "result": 0.0136}]}, {"target": "KIF11_P52732_43_ASAHSIVECDPVRK (UniProt P52732)", "values": [{"measurement": "probe-labelled cysteine peptide fold change", "setting": "10 µM", "result": -0.00394}, {"measurement": "probe-labelled cysteine peptide fold change", "setting": "50 µM", "result": -0.1}]}, {"target": "KDM2A_Q9Y2K7_463_CLVDKLESLPLHK (UniProt Q9Y2K7)", "values": [{"measurement": "probe-labelled cysteine peptide fold change", "setting": "10 µM", "result": -0.129}, {"measurement": "probe-labelled cysteine peptide fold change", "setting": "50 µM", "result": -0.0776}]}, {"target": "ITPR1_Q14643_1424_VVTHEDCIPEVK (UniProt Q14643)", "values": [{"measurement": "probe-labelled cysteine peptide fold change", "setting": "10 µM", "result": 0.224}, {"measurement": "probe-labelled cysteine peptide fold change", "setting": "50 µM", "result": 0.147}]}, {"target": "KEAP1_Q14145_624_QIDQQNCTC (UniProt Q14145)", "values": [{"measurement": "probe-labelled cysteine peptide fold change", "setting": "10 µM", "result": 0.0249}, {"measurement": "probe-labelled cysteine peptide fold change", "setting": "50 µM", "result": 0.00107}]}, {"target": "KAT2A_Q92830_695_KVYPGLSCFK (UniProt Q92830)", "values": [{"measurement": "probe-labelled cysteine peptide fold change", "setting": "10 µM", "result": -0.198}, {"measurement": "probe-labelled cysteine peptide fold change", "setting": "50 µM", "result": -0.309}]}, {"target": "ITPR1_Q14643_1394_MDENSPLMYHIHLVELLAVCTEGK (UniProt Q14643)", "values": [{"measurement": "probe-labelled cysteine peptide fold change", "setting": "10 µM", "result": 0.158}, {"measurement": "probe-labelled cysteine peptide fold change", "setting": "50 µM", "result": -0.269}]}, {"target": "KDM3B_Q7LBC6_72_AMSGAVPQDLAIFVEFDGCNWK (UniProt Q7LBC6)", "values": [{"measurement": "probe-labelled cysteine peptide fold change", "setting": "10 µM", "result": 0.115}, {"measurement": "probe-labelled cysteine peptide fold change", "setting": "50 µM", "result": -0.11}]}, {"target": "KIDINS220_Q9ULH0_412_AGETPYNIDCSHQK (UniProt Q9ULH0)", "values": [{"measurement": "probe-labelled cysteine peptide fold change", "setting": "10 µM", "result": -0.11}, {"measurement": "probe-labelled cysteine peptide fold change", "setting": "50 µM", "result": -0.00859}]}, {"target": "KIAA0100_Q14667_471_GVLTVDHLCWR (UniProt Q14667)", "values": [{"measurement": "probe-labelled cysteine peptide fold change", "setting": "10 µM", "result": -0.0348}, {"measurement": "probe-labelled cysteine peptide fold change", "setting": "50 µM", "result": 0.138}]}]}
